This passage reports binding results from publication PMC11224269.

Experiment [1] has as its target T1, biotinylated H3 peptide, H3 (44-59) (human).
T1 sequence (peptide, biotinylated at C-terminus): VALREIRRYQKSTE
The experiment in a line: pull-down; in vitro binding assay: biotinylated pY54-H3 or H3 peptide incubated with varying concentration of His-tagged SD peptide, pull-down with streptavidin beads, immunoblot for the His tag; both purified.

Experiment [2] has as its target biotinylated pY54-H3 peptide, pY54-H3 (44-59) (human). The description is as above.

Results are given in words; binding and its absence hold for the method and conditions named. For some assays here: A result given as binding can be weak or reduced; the word gives no strength.

On to “His-tagged SANT domain (52 aa long, SD peptide) (domain or fragment)”, for which the values for the binding result in experiment [1] and in experiment [2] were “no binding” and “binds”, respectively.
